Source: paper PMC6896172, “Successful Targeting of the Warburg Effect in Prostate Cancer by Glucose-Conjugated 1,4-Naphthoquinones” (Cancers, 2019)
The source gives many values for each of these; only a part stands here.

Test system: 22Rv1 cells
Assay: Global proteome analysis (LC-MS/MS, DIA) of differentially expressed proteins
Format: cell-based, human
Procedure: 22Rv1 cells were seeded in T75 culture bottles (4 × 10^6 cells/bottle in 20 mL/bottle), treated for 48 h with the 5 µM of compound 11 or vehicle (DMSO), harvested by scratching, washed twice with ice-cold PBS and flash-frozen. Cells were lysed and sonicated. The protein extracts were then heat-denaturated, reduced, alkylated and digested by trypsin. Peptides were chromatographically separated using full recovery autosampler vials and a nano-UPLC system (Acquity, Waters Corporation, Milford, MS, USA), coupled via electrospray ionization (ESI) to a tandem mass spectrometer equipped with a quadrupole and an orbitrap (QExactive, Thermo Fisher Scientific, Bremen, Germany), using MS/MS mode in data dependent acquisition (DDA) and data independent acquisition (DIA). The peptides, analyzed with DDA-LC-MS/MS, were identified with the search engine Sequest, integrated in the Proteome Discoverer software version 2.0 (Thermo Fischer Scientific) using the human Uniprot protein database (EMBL; Hinxton Cambridge, UK, release December 2018). […] For the details of sample preparation and proceeding, data acquisition and analysis see the Supplementary information. […]
serum (FBS, Invitrogen) and 1% penicillin/streptomycin (Invitrogen)). […]
Cell lines were lysed in 100 mM triethylammonium bicarbonate and 1% w/v sodium deoxycholate buffer followed by probe sonication to destroy polynucleotides and heat induce protein denaturing at 99 °C for 5 min. Protein concentrations were estimated with a bicinchonic acid (BCA) protein assay (Thermo Fisher Scientific, Bremen, Germany). 20 µg of protein were reduced in presence of 10 mM dithiotreithol (Sigma Aldrich) for 30 min at 60 °C followed by cysteine alkylation with 20 mM iodo acetamide (Sigma Aldrich) for 30 min at 37 °C in the dark and enzymatic degradation with sequencing grade trypsin (Promega) over night at 37 °C. Digestion was quenched with 1% formic acid (FA), precipitated sodium deoxycholate removed by centrifugation for 5 min at 14,000 g and the supernatant was dried in a vacuum centrifuge.
LC-MS/MS in Data Dependent and Data Independent Mode
Samples were resuspended in 0.1% FA and transferred into a full recovery autosampler vial (Waters). Chromatographic separation was achieved on a nano -UPLC system (Acquity, Waters Corporation, Milford, MS, USA) with a two-buffer-system (buffer A: 0.1% FA in water, buffer B:
0.1% FA in Acetonitrile (ACN), both at pH = 3). Attached to the UPLC was a reversed -phase peptide trapping column (Symmetry C18, 180 µm × 20 mm, 100 Å pore size, 5 µm particle size) for desalting, followed by a reversed-phase capillary separation of the tryptic peptides (BEH C18; 75 µm × 200 mm, 130 Å pore size, 1.7 µm particle size), using a 60 min gradient with increasing ACN concentration from 2–30% ACN. The eluting peptides were analyzed on a quadrupole-orbitrap mass spectrometer (QExactive, Thermo Fisher Scientific, Bremen, Germany) in data dependent acquisition (DDA) and data independent acquisition (DIA) for quantification.
In DDA mode, one replicate of each cell line was randomly chosen and 1 µg per sample was used per LC-MS/MS run to build a reference spectral library used for data extraction of samples acquired in DIA mode. For DDA, the 12 most intense ions per precursor scan (1 × 10 6 ions, 70,000 Resolution, 120 ms fill time) were analyzed by MS/MS (HCD at 25 normalized collision energy, 1 × 105 ions, 17,500 Resolution, 50 ms fill time) in a range of 400–1300 m/z. A dynamic precursor exclusion of 20 s was used. For DIA, 1 µg of each sample was analyzed using a 30 sequential 20 Da fixed window method covering the mass range from 400 –1000 m/z. Per cycle, 2 precursor scans (1 × […]
28 normalized collision energy, 1 × 106 ions, 17,500 Resolution, 50 ms fill time) were performed.
After the first precursor scan, 15 MS/MS scans were performed covering the precursor mass range from 400–700 m/z followed by the second precursor scan and another 15 MS/MS scans ranging from […]
LC-MS/MS Data Processing and Analysis […]

CC1(C)OC2OC(C(O)COC3=CC(=O)c4cccc(O)c4C3=O)C(O)C2O1 (centres unmarked) [Compound 11]
Fold change (treated / control) (RPB2_HUMAN P30876): 0.4541 | Fold change (treated / control) (RS2_HUMAN P15880): 0.6402 | Fold change (treated / control) (RS4X_HUMAN P62701): 0.7316 | Fold change (treated / control) (RS6_HUMAN P62753): 0.6108 | Fold change (treated / control) (RS8_HUMAN P62241): 0.7705 | Fold change (treated / control) (RS9_HUMAN P46781): 0.6218 | Fold change (treated / control) (RS14_HUMAN P62263): 0.6832 | Fold change (treated / control) (RS25_HUMAN P62851): 0.7448 | Fold change (treated / control) (RS26_HUMAN P62854): 1.219 | Fold change (treated / control) (RSSA_HUMAN P08865): 1.1957 | Fold change (treated / control) (RT07_HUMAN Q9Y2R9): 0.6784 | Fold change (treated / control) (RT18A_HUMAN Q9NVS2): 0.5156 | Fold change (treated / control) (RT18B_HUMAN Q9Y676): 0.3594 | Fold change (treated / control) (RT23_HUMAN Q9Y3D9): 0.4341 | Fold change (treated / control) (RT28_HUMAN Q9Y2Q9): 0.6729 | Fold change (treated / control) (RT34_HUMAN P82930): 0.3998 | Fold change (treated / control) (RUVB2_HUMAN Q9Y230): 1.4609 | Fold change (treated / control) (RUXE_HUMAN P62304): 1.231 | Fold change (treated / control) (S10AA_HUMAN P60903): 1.922 | Fold change (treated / control) (S10AB_HUMAN P31949): 2.04 | Fold change (treated / control) (S35B2_HUMAN Q8TB61): 0.6783 | Fold change (treated / control) (SAAL1_HUMAN Q96ER3): 1.66 | Fold change (treated / control) (SC11A_HUMAN P67812): 1.161 | Fold change (treated / control) (SC22B_HUMAN O75396): 1.1956 | Fold change (treated / control) (SCMC1_HUMAN Q6NUK1): 2.011 | Fold change (treated / control) (SCNAA_HUMAN Q9Y5Y9): 2.03 | Fold change (treated / control) (SDHB_HUMAN P21912): 0.4112 | Fold change (treated / control) (SERA_HUMAN O43175): 1.526 | Fold change (treated / control) (SERC1_HUMAN Q9NRX5): 0.3307 | Fold change (treated / control) (SERC_HUMAN Q9Y617): 1.605 | Fold change (treated / control) (SERPH_HUMAN P50454): 1.3 | Fold change (treated / control) (SF3B1_HUMAN O75533): 0.8384 | Fold change (treated / control) (SF3B3_HUMAN Q15393): 1.136 | Fold change (treated / control) (SGT1_HUMAN Q9Y2Z0): 1.144 | Fold change (treated / control) (SH3L3_HUMAN Q9H299): 1.647 | Fold change (treated / control) (SIGIR_HUMAN Q6IA17): 0.5907 | Fold change (treated / control) (SLD5_HUMAN Q9BRT9): 0.7628 | Fold change (treated / control) (SMC1A_HUMAN Q14683): 0.7088 | Fold change (treated / control) (SMCA5_HUMAN O60264): 0.6602 | Fold change (treated / control) (SMD1_HUMAN P62314): 0.7686 | Fold change (treated / control) (SMD3_HUMAN P62318): 1.357 | Fold change (treated / control) (SMN_HUMAN Q16637): 1.477 | Fold change (treated / control) (SMRC1_HUMAN Q92922): 0.6541 | Fold change (treated / control) (SMRC2_HUMAN Q8TAQ2): 0.751 | Fold change (treated / control) (SND1_HUMAN Q7KZF4): 0.6826 | Fold change (treated / control) (SNF5_HUMAN Q12824): 0.7197 | Fold change (treated / control) (SNX6_HUMAN Q9UNH7): 1.781 | Fold change (treated / control) (SP16H_HUMAN Q9Y5B9): 0.7259 | Fold change (treated / control) (SPB6_HUMAN P35237): 1.403 | Fold change (treated / control) (SQSTM_HUMAN Q13501): 3.787 | Fold change (treated / control) (SRPRB_HUMAN Q9Y5M8): 1.285 | Fold change (treated / control) (SRS11_HUMAN Q05519): 1.174 | Fold change (treated / control) (SRSF1_HUMAN Q07955): 1.167 | Fold change (treated / control) (SRSF2_HUMAN Q01130): 1.282 | Fold change (treated / control) (SRSF3_HUMAN P84103): 1.2459 | Fold change (treated / control) (SRSF7_HUMAN Q16629): 1.187 | Fold change (treated / control) (SRSF9_HUMAN Q13242): 1.1541 | Fold change (treated / control) (SSA27_HUMAN O60232): 1.222 | Fold change (treated / control) (SSBP_HUMAN Q04837): 1.4708 | Fold change (treated / control) (STEA2_HUMAN Q8NFT2): 0.3512 | Fold change (treated / control) (STRBP_HUMAN Q96SI9): 0.6608 | Fold change (treated / control) (STXB2_HUMAN Q15833): 1.385 | Fold change (treated / control) (SUCB2_HUMAN Q96I99): 0.8543 | Fold change (treated / control) (SUMO2_HUMAN P61956): 0.1159 | Fold change (treated / control) (SUOX_HUMAN P51687): 0.6055 | Fold change (treated / control) (SYAC_HUMAN P49588): 0.5085 | Fold change (treated / control) (SYAM_HUMAN Q5JTZ9): 0.5065 | Fold change (treated / control) (SYDM_HUMAN Q6PI48): 0.6768 | Fold change (treated / control) (SYF1_HUMAN Q9HCS7): 0.4892 | Fold change (treated / control) (SYK_HUMAN Q15046): 1.395 | Fold change (treated / control) (SYNC_HUMAN O43776): 1.304 | Fold change (treated / control) (SYSC_HUMAN P49591): 1.667 | Fold change (treated / control) (SYTM_HUMAN Q9BW92): 0.4662 | Fold change (treated / control) (SYWC_HUMAN P23381): 1.1947 | Fold change (treated / control) (T2FA_HUMAN P35269): 1.489 | Fold change (treated / control) (TAGL2_HUMAN P37802): 1.304 | Fold change (treated / control) (TB182_HUMAN Q9C0C2): 1.469 | Fold change (treated / control) (TBA4A_HUMAN P68366): 1.5598 | Fold change (treated / control) (TCPB_HUMAN P78371): 1.22 | Fold change (treated / control) (TCPG_HUMAN P49368): 1.0981 | Fold change (treated / control) (TCPQ_HUMAN P50990): 1.157 | Fold change (treated / control) (TCTP_HUMAN P13693): 1.49 | Fold change (treated / control) (TEBP_HUMAN Q15185): 0.8374 | Fold change (treated / control) (TECR_HUMAN Q9NZ01): 0.7078 | Fold change (treated / control) (TERA_HUMAN P55072): 1.244 | Fold change (treated / control) (TES_HUMAN Q9UGI8): 2.179 | Fold change (treated / control) (TF3C5_HUMAN Q9Y5Q8): 0.6483 | Fold change (treated / control) (THIC_HUMAN Q9BWD1): 1.469 | Fold change (treated / control) (THIL_HUMAN P24752): 0.7393 | Fold change (treated / control) (THTR_HUMAN Q16762): 0.4968 | Fold change (treated / control) (TIF1B_HUMAN Q13263): 0.901 | Fold change (treated / control) (TIM8B_HUMAN Q9Y5J9): 0.3123 | Fold change (treated / control) (TIM13_HUMAN Q9Y5L4): 0.5414 | Fold change (treated / control) (TM109_HUMAN Q9BVC6): 1.24 | Fold change (treated / control) (TM205_HUMAN Q6UW68): 0.723 | Fold change (treated / control) (TMCO1_HUMAN Q9UM00): 1.491 | Fold change (treated / control) (TMED1_HUMAN Q13445): 1.494 | Fold change (treated / control) (TMM43_HUMAN Q9BTV4): 2.013 | Fold change (treated / control) (TMOD3_HUMAN Q9NYL9): 1.3151 | Fold change (treated / control) (TMX1_HUMAN Q9H3N1): 0.7963 | Fold change (treated / control) (TOIP1_HUMAN Q5JTV8): 1.681
